# “And” between values parts separate entries of the source, which are not always exact repeats. Equal entries are not always repeated. At least one peptide structure holds a part that was inferred or is arguable (an end, a ring closure or a residue). No end group written: not given here.
# System: human A549 epithelial cells
# Test: Resgen Human cDNA arrays (PRHU03-S3) of A549 cells treated with peptide (Tables 21-26)
# Conditions: 50 μg/ml, 4 h
substance,measurement,setting,value
RLARIVVIRVAR-NH2 [SEQ ID NO: 3],"Ratio Peptide:Unstimulated, catenin (cadherin-associated protein), delta 1",AA025276,2.2
same,"Ratio Peptide:Unstimulated, integrin, beta 3",AA037229,2.8
same,"Ratio Peptide:Unstimulated, Epstein-Barr virus induced polynucleotide 2",AA037376,2.4
same,"Ratio Peptide:Unstimulated, disintegrin and metalloproteinase domain 10",AA043347,2.1
same,"Ratio Peptide:Unstimulated, MAP kinase kinase kinase kinase 3",AA043537,0.20
same,"Ratio Peptide:Unstimulated, protein tyrosine phosphatase, receptor type, J",AA045326,3.2
same,"Ratio Peptide:Unstimulated, MAP kinase kinase kinase 12",AA053674,0.91
same,"Ratio Peptide:Unstimulated, integrin, alpha 7",AA055979,0.39
same,"Ratio Peptide:Unstimulated, leukocyte immunoglobulin-like receptor, subfamily B (with TM and ITIM domains), member 4",AA076350,0.43
same,"Ratio Peptide:Unstimulated, phospholipase A2 receptor 1",AA086038,2.2
same,"Ratio Peptide:Unstimulated, IL-8",AA102526,17
same,"Ratio Peptide:Unstimulated, cadherin 11, type 2, OB-cadherin (osteoblast)",AA136983,0.57
same,"Ratio Peptide:Unstimulated, TNF R superfamily, member 1B","AA150416, listed as ID 3",3.0 and 3.01
same,"Ratio Peptide:Unstimulated, MAP kinase 9",AA157286,0.39
same,"Ratio Peptide:Unstimulated, macrophage stimulating 1 R",AA173454,2.3
same,"Ratio Peptide:Unstimulated, killer cell lectin-like receptor subfamily C, member 2",AA190627,9.0
same,"Ratio Peptide:Unstimulated, TNF R superfamily, member 11b",AA194983,4.50
same,"Ratio Peptide:Unstimulated, disintegrin-like and metalloprotease with thrombosondin type 1 motif, 3",AA398492,0.63
same,"Ratio Peptide:Unstimulated, MAP kinase kinase kinase 4",AA402447,0.79
same,"Ratio Peptide:Unstimulated, prostaglandin E receptor 3 (subtype EP3)",AA406362,4.9
same,"Ratio Peptide:Unstimulated, MAP kinase kinase kinase kinase 4",AA417711,0.09
same,"Ratio Peptide:Unstimulated, MAP kinase 8 interacting protein 2",AA418293,0.85
same,"Ratio Peptide:Unstimulated, integrin, alpha 3 (antigen CD49C, alpha 3 subunit of VLA-3 receptor)",AA424695,2.5
same,"Ratio Peptide:Unstimulated, cadherin 3, type 1, P-cadherin (placental)",AA425217,0.53
same,"Ratio Peptide:Unstimulated, integrin, alpha E",AA425451,120
same,"Ratio Peptide:Unstimulated, formyl peptide receptor 1",AA425767,1.4
same,"Ratio Peptide:Unstimulated, MAP kinase kinase 2",AA425826,3.35
same,"Ratio Peptide:Unstimulated, cytokine inducible SH2-containing protein",AA427521,44
same,"Ratio Peptide:Unstimulated, integrin, beta 5",AA434397,1.52
same,"Ratio Peptide:Unstimulated, protein tyrosine phosphatase, non-receptor type 9",AA434420,4.0
same,"Ratio Peptide:Unstimulated, protein tyrosine phosphatase, non-receptor type 12",AA446259,2.2
same,"Ratio Peptide:Unstimulated, caspase 8, apoptosis-related cysteine protease",AA448468,1.0
same,"Ratio Peptide:Unstimulated, growth factor receptor-bound protein 2",AA449831,2.0
same,"Ratio Peptide:Unstimulated, endothelin receptor type A",AA450009,14
same,"Ratio Peptide:Unstimulated, integrin, alpha 1",AA450324,0.26
same,"Ratio Peptide:Unstimulated, Human proteinase activated R-2",AA454652,1.9
same,"Ratio Peptide:Unstimulated, IL-11 R alpha",AA454657,1.0
same,"Ratio Peptide:Unstimulated, CSF 3 R",AA458507,2.5
same,"Ratio Peptide:Unstimulated, G protein-coupled receptor 49",AA460530,19
same,"Ratio Peptide:Unstimulated, integrin, alpha 10",AA460959,0.18
same,"Ratio Peptide:Unstimulated, NK cell R",AA463248,0.7
same,"Ratio Peptide:Unstimulated, integrin, alpha 2 (CD49B, alpha 2 subunit of VLA-2 receptor)",AA463257,2.4
same,"Ratio Peptide:Unstimulated, IL-1 receptor, type I",AA464526,0.72
same,"Ratio Peptide:Unstimulated, protein tyrosine phosphatase, receptor type, E",AA464542,0.37
same,"Ratio Peptide:Unstimulated, protein tyrosine phosphatase, receptor type, N polypeptide 2",AA464590,0.44
same,"Ratio Peptide:Unstimulated, protein tyrosine phosphatase, receptor-type, Z polypeptide 1",AA476461,0.34
same,"Ratio Peptide:Unstimulated, intercellular adhesion molecule 3",AA479188,0.31
same,"Ratio Peptide:Unstimulated, IL-18 receptor 1",AA482489,0.42
same,"Ratio Peptide:Unstimulated, vitamin D R",AA485226,1.3
same,"Ratio Peptide:Unstimulated, integrin, beta 4",AA485668,2.2
same,"Ratio Peptide:Unstimulated, IL-10 R beta","AA486393, listed as ID 3",1.6 and 1.56
same,"Ratio Peptide:Unstimulated, calcium and integrin binding protein",AA487575,4.7
same,"Ratio Peptide:Unstimulated, G protein-coupled receptor kinase 7",AA488413,0.34
same,"Ratio Peptide:Unstimulated, TRAF and TNF receptor-associated protein",AA488650,0.22
same,"Ratio Peptide:Unstimulated, cytokine-inducible kinase",AA489234,0.37
same,"Ratio Peptide:Unstimulated, programmed cell death 8 (apoptosis-inducing factor)",AA496348,0.35
same,"Ratio Peptide:Unstimulated, melanoma adhesion molecule",AA497002,20
same,"Ratio Peptide:Unstimulated, apoptosis-related protein PNAS-1",AA521316,1.4
same,"Ratio Peptide:Unstimulated, complement component receptor 2",AA521362,4.5
same,"Ratio Peptide:Unstimulated, laminin R 1 (67 kD, ribosomal protein SA)",AA629897,2.0
same,"Ratio Peptide:Unstimulated, protein tyrosine phosphatase, receptor type, U",AA644448,1.2
same,"Ratio Peptide:Unstimulated, integrin, beta 3",AA666269,1.4
same,"Ratio Peptide:Unstimulated, regulator of G-protein signaling 5",AA668470,0.06
same,"Ratio Peptide:Unstimulated, T cell R delta locus",AA670107,1.3
same,"Ratio Peptide:Unstimulated, small inducible cytokine A3 (homologous to mouse Mip-1a)",AA677522,0.32
same,"Ratio Peptide:Unstimulated, protein tyrosine phosphatase, non-receptor type 13",AA679180,2.4
same,"Ratio Peptide:Unstimulated, protein tyrosine phosphatase, non-receptor type 3",AA682684,13.2
same,"Ratio Peptide:Unstimulated, v-SNARE R",AA704511,12
same,"Ratio Peptide:Unstimulated, adenosine A3 R",AA863086,2.3
same,"Ratio Peptide:Unstimulated, integrin, alpha 9",AA865557,0.05
same,"Ratio Peptide:Unstimulated, small inducible cytokine subfamily B (Cys-X-Cys), member 10",AA878880,1.07
same,"Ratio Peptide:Unstimulated, interleukin enhancer binding factor 2",AA894687,2.3
same,"Ratio Peptide:Unstimulated, IL-2 receptor, alpha",AA903183,0.33
same,"Ratio Peptide:Unstimulated, small inducible cytokine subfamily A (Cys—Cys), member 23",AA916836,0.31
same,"Ratio Peptide:Unstimulated, CD2","AA927710, listed as ID 3",0.9 and 0.87
same,"Ratio Peptide:Unstimulated, IL-12 receptor, beta 2",AA977194,0.22
same,"Ratio Peptide:Unstimulated, TNF R superfamily, member 17",AA987627,0.38
same,"Ratio Peptide:Unstimulated, protein tyrosine phosphatase, non-receptor type 11",AA995560,2.4
same,"Ratio Peptide:Unstimulated, integrin beta 4 binding protein",AI017019,5.0
same,"Ratio Peptide:Unstimulated, orphan seven-transmembrane receptor, chemokine related",AI131555,0.10
same,"Ratio Peptide:Unstimulated, IL-1 R antagonist homolog 1","AI167887, listed as ID 3",1856 and 1855.90
same,"Ratio Peptide:Unstimulated, MAP kinase 8 interacting protein 2",AI202738,0.35
same,"Ratio Peptide:Unstimulated, disintegrin and metalloproteinase domain 18",AI205675,0.29
same,"Ratio Peptide:Unstimulated, regulator of G-protein signaling 20",AI264190,137
same,"Ratio Peptide:Unstimulated, small inducible cytokine subfamily A (Cys—Cys), member 20",AI285199,0.38
same,"Ratio Peptide:Unstimulated, TLR 1",AI339155,0.31
